From patent US20150196500A1, “Treatment of Mitochondria-Related Diseases and Improvement of Age-Related Metabolic Deficits” (PHILERA NEW ZEALAND LIMITED, priority 2005, published 2015)
Some results were stated once for a whole list of compounds, not compound by compound.

Test system: mitochondria isolated from hearts of obese ZDF rats and lean littermates
Format: cell-based, rat
Settings: 150 μM CaCl2

## NCCCCNCCCN [spermidine]
  concentrations at which Ca2+ induced swelling is inhibited: below 0.625 mM
